Experimental findings from paper PMC12751014, “Non-Catalytic Inhibitors of the p38/MK2 Interface: Repurposing Approved Drugs to Target Neuroinflammation in Alzheimer’s Disease” (Journal of Medicinal Chemistry, 2025) are described below.

Amino acid sequences for entries named in this document (tags omitted). Residues count along the entry.
UniProt Q16539, 2-360 limits assumed: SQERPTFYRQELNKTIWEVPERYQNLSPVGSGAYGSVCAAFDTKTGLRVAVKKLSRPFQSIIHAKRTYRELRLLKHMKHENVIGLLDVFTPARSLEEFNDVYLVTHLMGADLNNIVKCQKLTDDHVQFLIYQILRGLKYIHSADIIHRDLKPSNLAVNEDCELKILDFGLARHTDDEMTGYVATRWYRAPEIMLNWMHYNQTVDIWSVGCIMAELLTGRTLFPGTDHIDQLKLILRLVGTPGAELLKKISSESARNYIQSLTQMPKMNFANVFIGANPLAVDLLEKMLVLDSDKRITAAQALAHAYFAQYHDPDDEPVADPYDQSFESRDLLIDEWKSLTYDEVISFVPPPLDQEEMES

Structures are written as SMILES. The strong results were mostly taken out for another list; the other results follow.

In this assay the target is p38/MK2 protein–protein interaction (VF-p38α / GST-MK2) (Homo sapiens, UniProt Q16539). As to the kind of experiment: primary screen, percent of control activity; higher = less effect of the substance. The arrangement: species or system HEK293T cell lysate transfected with VF-p38α and GST-MK2; unclear (methods say 'quintuplet replicates'). On the procedure:
The TR-FRET assay was conducted in a 1536-well plate (Corning, catalog no. 3724) with HEK293T cell lysate transfected with VF-p38α and GST-MK2. Cell-lysate concentration was optimized with a titration experiment. Anti-Flag-Tb and anti-GST-d2 antibodies (Revvity, catalog no. 61FGBTLB) were used to couple p38α and MK2, respectively. A multiple-drop Combi dispenser (Thermo Scientific) combined reaction mixtures in quintuplet replicates. The TR-FRET signals were measured using a BMG Labtech PHERAstar FSX plate reader and normalized to the percent of DMSO control.
`CN1CCCC1CCOC(C)(c1ccccc1)c1ccc(Cl)cc1.O=C(O)C=CC(=O)O` (stereo not shown) returned a Pct of control of 88.2%.
As for `CCCCCCCCCCCCCCCC[n+]1ccccc1.[Cl-]`, the figure is 123%.
Then `CN1CCN2c3ccccc3Cc3ccccc3C2C1.Cl` (stereo not shown), with 103%.
In turn, `CCC(=C(c1ccccc1)c1ccc(OCCN(C)C)cc1)c1ccccc1.O=C(O)CC(O)(CC(=O)O)C(=O)O` showed a Pct of control of 95%.
Then `CCN(CC)CCOC(=O)C1(C2CCCCC2)CCCCC1.Cl`, with 91.8%; and `CC(C)(O)c1ccccc1CCC(SCC1(CC(=O)[O-])CC1)c1cccc(C=Cc2ccc3ccc(Cl)cc3n2)c1.[Na+]` (stereo not shown), with 53.7%.
As for `O=C(O)C=CC(=O)O.OCCOCCN1CCN(C2=Nc3ccccc3Sc3ccccc32)CC1.OCCOCCN1CCN(C2=Nc3ccccc3Sc3ccccc32)CC1`, the figure is 92.7%; as for `Clc1ccc(COC(Cn2ccnc2)c2ccc(Cl)cc2Cl)cc1.O=[N+]([O-])O` (stereo not shown), 99.7%.
As to `CN(C)CCN(Cc1cccs1)c1ccccn1.Cl`, the Pct of control worked out at 88.6%.
As for `CC(C)NCC(O)COc1cccc2ccccc12.Cl` (stereo not shown), the figure is 105%; as for `Clc1ccc2c(c1)CCc1cccnc1C2=C1CCNCC1`, 85.4%.
Regarding `CNCCCC12CCC(c3ccccc31)c1ccccc12.Cl`, the Pct of control is listed as 91.2%.
Turning to `CN1CCN(CCCN2c3ccccc3Sc3ccc(Cl)cc32)CC1.O=C(O)C=CC(=O)O.O=C(O)C=CC(=O)O`, the Pct of control stood at 83.3%.
As for `CN(C)CCOC(c1ccccc1)c1ccccc1.Cl`, the figure is 101%; as for `CSc1ccc2c(c1)N(CCC1CCCCN1C)c1ccccc1S2.Cl` (stereo not shown), 91.3%.
As for `CN(C)CCCN1c2ccccc2CCc2ccc(Cl)cc21.Cl`, the figure is 95.5%.
As for `CNCCC(Oc1ccc(C(F)(F)F)cc1)c1ccccc1.Cl` (stereo not shown), the figure is 97.7%; as for `Clc1ccc(CSC(Cn2ccnc2)c2ccc(Cl)cc2Cl)cc1.O=[N+]([O-])O` (stereo not shown), 94.2%.
`CCCCc1oc2ccccc2c1C(=O)c1cc(I)c(OCCN(CC)CC)c(I)c1.Cl`: the Pct of control was 92.6%.
As for `CN1CCC(=C2c3ccccc3C=Cc3ccccc32)CC1.Cl`, the figure is 87.8%; as for `CN1C2CCC1CC(OC(c1ccccc1)c1ccccc1)C2.CS(=O)(=O)O` (stereo not shown), 87.2%.
As for `CNC1CCC(c2ccc(Cl)c(Cl)c2)c2ccccc21.Cl` (stereo not shown), the Pct of control is listed as 86.9%.
Then `CCN(CC)CCOc1ccc(C(=C(Cl)c2ccccc2)c2ccccc2)cc1.O=C(O)CC(O)(CC(=O)O)C(=O)O`, with 97.6%.
With `Cl.Cl.Fc1ccc(C(c2ccc(F)cc2)N2CCN(CC=Cc3ccccc3)CC2)cc1`, the Pct of control was found to be 91.4%.
Then `Cc1ccccc1C(OCCN(C)C)c1ccccc1.O=C(O)CC(O)(CC(=O)O)C(=O)O` (stereo not shown), with 85.6%.
